This is an account of results in article PMC9865144, “Crystal Structure of the SH3 Domain of ASAP1 in Complex with the Proline Rich Motif (PRM) of MICAL1 Reveals a Unique SH3/PRM Interaction Mode” (International Journal of Molecular Sciences, 2023).

By UniProt entry, the sequences of proteins in these tests, tags left out.
UniProt Q9QWY8: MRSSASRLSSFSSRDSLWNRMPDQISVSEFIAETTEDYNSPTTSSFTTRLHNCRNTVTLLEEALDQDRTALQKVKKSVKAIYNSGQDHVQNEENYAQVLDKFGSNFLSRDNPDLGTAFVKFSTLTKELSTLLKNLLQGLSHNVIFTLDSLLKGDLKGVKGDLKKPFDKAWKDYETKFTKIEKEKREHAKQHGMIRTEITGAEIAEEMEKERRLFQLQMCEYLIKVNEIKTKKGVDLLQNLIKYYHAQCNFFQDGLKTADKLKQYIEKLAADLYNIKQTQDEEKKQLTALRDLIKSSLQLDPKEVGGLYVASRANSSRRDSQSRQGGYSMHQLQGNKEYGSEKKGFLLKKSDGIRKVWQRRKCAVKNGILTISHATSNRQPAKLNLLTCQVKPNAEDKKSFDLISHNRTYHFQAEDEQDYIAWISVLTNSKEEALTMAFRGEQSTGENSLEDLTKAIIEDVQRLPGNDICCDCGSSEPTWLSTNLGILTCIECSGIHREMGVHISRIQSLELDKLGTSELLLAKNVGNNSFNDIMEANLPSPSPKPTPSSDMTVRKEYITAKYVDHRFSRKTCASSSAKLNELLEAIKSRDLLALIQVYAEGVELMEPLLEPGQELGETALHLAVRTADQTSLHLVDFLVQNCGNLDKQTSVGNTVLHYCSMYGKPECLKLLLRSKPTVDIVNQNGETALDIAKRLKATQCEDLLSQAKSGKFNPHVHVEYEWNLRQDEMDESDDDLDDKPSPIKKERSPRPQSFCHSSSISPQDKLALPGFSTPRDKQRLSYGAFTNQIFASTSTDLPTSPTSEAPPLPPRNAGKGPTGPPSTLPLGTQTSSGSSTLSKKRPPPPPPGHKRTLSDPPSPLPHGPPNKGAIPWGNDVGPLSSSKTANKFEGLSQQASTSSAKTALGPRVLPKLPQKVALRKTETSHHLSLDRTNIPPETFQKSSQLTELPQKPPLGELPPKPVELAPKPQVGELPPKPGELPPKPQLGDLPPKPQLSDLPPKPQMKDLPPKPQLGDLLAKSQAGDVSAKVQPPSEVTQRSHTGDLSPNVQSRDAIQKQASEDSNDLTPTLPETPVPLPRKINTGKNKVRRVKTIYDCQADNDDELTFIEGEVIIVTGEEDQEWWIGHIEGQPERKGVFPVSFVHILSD
UniProt Q08AE8: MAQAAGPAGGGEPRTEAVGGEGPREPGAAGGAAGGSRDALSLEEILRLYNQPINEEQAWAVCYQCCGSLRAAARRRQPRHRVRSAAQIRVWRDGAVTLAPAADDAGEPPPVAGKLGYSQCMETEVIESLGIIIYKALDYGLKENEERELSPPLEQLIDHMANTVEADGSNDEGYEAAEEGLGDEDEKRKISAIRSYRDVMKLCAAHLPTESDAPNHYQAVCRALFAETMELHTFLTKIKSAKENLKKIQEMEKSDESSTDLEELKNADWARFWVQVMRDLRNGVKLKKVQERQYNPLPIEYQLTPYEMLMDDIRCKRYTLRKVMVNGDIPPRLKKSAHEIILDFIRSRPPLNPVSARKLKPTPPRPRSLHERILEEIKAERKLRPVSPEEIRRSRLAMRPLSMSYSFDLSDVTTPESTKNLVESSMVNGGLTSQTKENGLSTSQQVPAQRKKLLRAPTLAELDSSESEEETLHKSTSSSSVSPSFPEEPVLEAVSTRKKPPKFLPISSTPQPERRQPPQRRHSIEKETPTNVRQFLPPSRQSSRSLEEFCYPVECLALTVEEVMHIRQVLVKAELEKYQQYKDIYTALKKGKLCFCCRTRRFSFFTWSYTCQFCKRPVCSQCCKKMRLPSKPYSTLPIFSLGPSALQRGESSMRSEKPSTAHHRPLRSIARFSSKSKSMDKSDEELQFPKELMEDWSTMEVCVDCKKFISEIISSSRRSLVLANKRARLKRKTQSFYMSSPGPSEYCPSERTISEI

Like-named read-outs stand apart in the source and are kept apart here. No constants are given. Whether binding was seen depends on the method and setting. In cells and extracts the contact can be indirect. Some binding calls cover weakened binding; strength is not graded here.

The target in test [1] is full-length mouse ASAP1, for cell transfection (mouse) (UniProt Q9QWY8). Briefly: co-IP; 293T cells cotransfected with Flag- and GFP-tagged plasmids, 24 h; lysis buffer 50 mM Tris pH 7.5, 100 mM NaCl, 1% Triton X-100; GFP beads 1 h at 4 °C; Western blotting.
Test [2] has the same target. The description is as above. This is another data set of the same source.

As for “full-length human Spire1, for cell transfection (from UniProt Q08AE8 1-756)”, the binding entry in test [1] is “binds weakly”.

B1: full-length human MICAL1, for cell transfection (protein, UniProt Q8TDZ2 1-1067)
chain: MASPTSTNPAHAHFESFLQAQLCQDVLSSFQELCGALGLEPGGGLPQYHKIKDQLNYWSAKSLWTKLDKRAGQPVYQQGRACTSTKCLVVGAGPCGLRVAVELALLGARVVLVEKRTKFSRHNVLHLWPFTIHDLRALGAKKFYGRFCTGTLDHISIRQLQLLLLKVALLLGVEIHWGVTFTGLQPPPRKGSGWRAQLQPNPPAQLANYEFDVLISAAGGKFVPEGFKVREMRGKLAIGITANFVNGRTVEETQVPEISGVARIYNQSFFQSLLKATGIDLENIVYYKDDTHYFVMTAKKQCLLRLGVLRQDWPDTNRLLGSANVVPEALQRFTRAAADFATHGKLGKLEFAQDAHGQPDVSAFDFTSMMRAESSARVQEKHGARLLLGLVGDCLVEPFWPLGTGVARGFLAAFDAAWMVKRWAEGAESLEVLAERESLYQLLSQTSPENMHRNVAQYGLDPATRYPNLNLRAVTPNQVRDLYDVLAKEPVQRNNDKTDTGMPATGSAGTQEELLRWCQEQTAGYPGVHVSDLSSSWADGLALCALVYRLQPGLLEPSELQGLGALEATAWALKVAENELGITPVVSAQAVVAGSDPLGLIAYLSHFHSAFKSMAHSPGPVSQASPGTSSAVLFLSKLQRTLQRSRAKENAEDAGGKKLRLEMEAETPSTEVPPDPEPGVPLTPPSQHQEAGAGDLCALCGEHLYVLERLCVNGHFFHRSCFRCHTCEATLWPGGYEQHPGDGHFYCLQHLPQTDHKAEGSDRGPESPELPTPSENSMPPGLSTPTASQEGAGPVPDPSQPTRRQIRLSSPERQRLSSLNLTPDPEMEPPPKPPRSCSALARHALESSFVGWGLPVQSPQALVAMEKEEKESPFSSEEEEEDVPLDSDVEQALQTFAKTSGTMNNYPTWRRTLLRRAKEEEMKRFCKAQTIQRRLNEIEAALRELEAEGVKLELALRRQSSSPEQQKKLWVGQLLQLVDKKNSLVAEEAELMITVQELNLEEKQWQLDQELRGYMNREENLKTAADRQAEDQVLRKLVDLVNQRDALIRFQEERRLSELALGTGAQG
In the case of B1, the binding result in test [2] was “binds”.
